Test results: publication PMC4899155 (Molecular pharmaceutics, 2016)

Assays:
Jurkat cells [1] = assay: Automated patch-clamp electrophysiology for Jurkat cells; format: cell-based, human; settings: read-out: EC50, Jurkat cell membrane currents; agonist alone, -80 mV
Jurkat cells [2] = assay: Intracellular calcium assay; format: cell-based, human; settings: read-out: IC50, PMA/PHA-induced increase in [Ca2+]i, Fluo-4

NCCCC(=O)O [GABA]
EC50 (Jurkat cells [1]): 0.0031 mM
IC50 (Jurkat cells [2]): 74 ± 3 mM
